According to publication PMC3411781:
No constants are given. Whether binding was seen depends on the method and setting. Binding seen in cells or lysates may run through a third protein. Some results given as binding are weak or reduced against the parent protein; the word gives no strength.

Protein sequences, listed by entry. Tags and fused reporters are not part of them.
UniProt P06748: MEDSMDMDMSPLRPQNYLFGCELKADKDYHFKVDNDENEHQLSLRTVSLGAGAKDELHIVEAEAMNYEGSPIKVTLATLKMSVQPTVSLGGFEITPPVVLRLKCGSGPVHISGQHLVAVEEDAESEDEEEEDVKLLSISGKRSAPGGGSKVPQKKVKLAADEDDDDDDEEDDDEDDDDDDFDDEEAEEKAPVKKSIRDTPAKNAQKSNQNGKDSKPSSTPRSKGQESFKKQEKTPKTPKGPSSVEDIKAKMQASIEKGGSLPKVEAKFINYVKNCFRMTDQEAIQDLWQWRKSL
UniProt Q02880: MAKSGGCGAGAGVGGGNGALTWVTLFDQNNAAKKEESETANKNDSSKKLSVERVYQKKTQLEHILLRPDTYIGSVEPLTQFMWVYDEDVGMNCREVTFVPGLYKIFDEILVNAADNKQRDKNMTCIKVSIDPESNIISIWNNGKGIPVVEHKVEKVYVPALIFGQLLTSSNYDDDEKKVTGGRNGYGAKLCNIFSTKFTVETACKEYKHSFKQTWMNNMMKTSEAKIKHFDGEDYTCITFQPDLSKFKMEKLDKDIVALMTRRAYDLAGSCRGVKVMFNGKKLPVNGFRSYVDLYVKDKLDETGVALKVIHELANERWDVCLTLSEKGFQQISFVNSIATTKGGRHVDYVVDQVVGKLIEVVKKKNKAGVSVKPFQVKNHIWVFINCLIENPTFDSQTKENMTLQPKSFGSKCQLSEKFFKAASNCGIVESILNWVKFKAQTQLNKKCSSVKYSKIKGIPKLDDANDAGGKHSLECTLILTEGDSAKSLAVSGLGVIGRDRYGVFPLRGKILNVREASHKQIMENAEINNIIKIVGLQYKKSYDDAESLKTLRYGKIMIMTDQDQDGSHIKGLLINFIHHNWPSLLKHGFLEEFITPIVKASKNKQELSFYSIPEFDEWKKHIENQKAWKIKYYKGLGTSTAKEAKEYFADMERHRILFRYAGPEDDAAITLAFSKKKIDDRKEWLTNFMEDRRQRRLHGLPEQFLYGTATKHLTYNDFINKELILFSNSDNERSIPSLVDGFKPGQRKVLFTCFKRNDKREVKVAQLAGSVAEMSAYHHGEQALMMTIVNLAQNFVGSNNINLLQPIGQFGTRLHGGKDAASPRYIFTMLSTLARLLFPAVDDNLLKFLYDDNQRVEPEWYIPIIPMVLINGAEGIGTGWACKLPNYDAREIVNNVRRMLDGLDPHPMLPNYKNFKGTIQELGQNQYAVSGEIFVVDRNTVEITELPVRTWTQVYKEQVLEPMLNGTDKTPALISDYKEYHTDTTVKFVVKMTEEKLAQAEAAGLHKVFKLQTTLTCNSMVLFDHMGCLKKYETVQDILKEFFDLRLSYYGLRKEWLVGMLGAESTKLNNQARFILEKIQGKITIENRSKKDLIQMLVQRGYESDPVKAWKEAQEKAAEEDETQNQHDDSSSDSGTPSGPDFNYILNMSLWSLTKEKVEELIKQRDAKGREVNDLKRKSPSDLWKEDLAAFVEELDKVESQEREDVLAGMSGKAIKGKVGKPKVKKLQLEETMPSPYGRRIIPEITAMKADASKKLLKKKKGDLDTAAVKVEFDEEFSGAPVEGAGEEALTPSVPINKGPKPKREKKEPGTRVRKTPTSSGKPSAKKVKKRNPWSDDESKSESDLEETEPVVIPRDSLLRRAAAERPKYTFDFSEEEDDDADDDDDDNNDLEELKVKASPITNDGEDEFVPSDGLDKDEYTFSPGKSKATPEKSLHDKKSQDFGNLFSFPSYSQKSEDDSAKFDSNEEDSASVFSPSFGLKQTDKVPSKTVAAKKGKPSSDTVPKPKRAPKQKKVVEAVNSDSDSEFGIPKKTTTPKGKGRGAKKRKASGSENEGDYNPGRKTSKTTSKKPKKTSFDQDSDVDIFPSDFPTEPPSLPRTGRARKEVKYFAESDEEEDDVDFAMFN

Target: T1, CCCTC-binding factor CTCF (human (endogenous in hESCs)) (UniProt P49711)
T1 sequence: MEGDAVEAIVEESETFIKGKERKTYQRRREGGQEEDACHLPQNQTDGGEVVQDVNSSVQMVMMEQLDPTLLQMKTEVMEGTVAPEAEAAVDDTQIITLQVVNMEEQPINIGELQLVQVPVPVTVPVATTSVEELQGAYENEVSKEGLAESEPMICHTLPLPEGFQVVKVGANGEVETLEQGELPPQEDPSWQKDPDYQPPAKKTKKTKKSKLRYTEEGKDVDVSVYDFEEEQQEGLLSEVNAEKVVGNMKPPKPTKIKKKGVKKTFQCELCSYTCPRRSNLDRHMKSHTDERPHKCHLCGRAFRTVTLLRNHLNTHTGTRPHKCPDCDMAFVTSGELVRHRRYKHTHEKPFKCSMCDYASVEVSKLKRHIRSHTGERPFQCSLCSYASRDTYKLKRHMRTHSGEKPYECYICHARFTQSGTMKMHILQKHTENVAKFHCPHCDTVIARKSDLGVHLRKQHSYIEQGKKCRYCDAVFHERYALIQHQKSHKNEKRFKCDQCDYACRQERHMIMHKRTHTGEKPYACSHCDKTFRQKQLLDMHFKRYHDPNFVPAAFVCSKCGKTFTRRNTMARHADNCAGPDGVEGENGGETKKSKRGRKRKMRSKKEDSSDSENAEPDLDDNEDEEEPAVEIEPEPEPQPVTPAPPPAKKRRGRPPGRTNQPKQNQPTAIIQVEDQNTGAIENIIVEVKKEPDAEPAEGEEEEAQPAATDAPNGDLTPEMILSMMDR
Experiment: co-IP; endogenous CTCF immunoprecipitated from hESC whole cell extract (lysis buffer with 420 mM NaCl, diluted 6X with IP buffer: 20 mM Tris HCl pH 7.5, 50 mM NaCl, 10 mM MgCl2, 2 mM EDTA, 0.5% Triton-X-100); antibody overnight at 4°C, protein-G Sepharose beads; Western blot of partners

| binding | Substance |
| --- | --- |
| binds | Nucleophosmin (from UniProt P06748 1-294) |
| binds | TopoIIβ (from UniProt Q02880 1-1626) |
